Laboratory results as given in publication PMC8213057, “Targeting ALK2: An Open Science Approach to Developing Therapeutics for the Treatment of Diffuse Intrinsic Pontine Glioma” (Journal of Medicinal Chemistry, 2020).

Protein sequences, listed by entry. Tags and fused reporters are not part of them. Lines headed by an entry give the natural chain unless they say otherwise; changes in a name come on top. Residues count along the entry.
UniProt Q00534, whole entry: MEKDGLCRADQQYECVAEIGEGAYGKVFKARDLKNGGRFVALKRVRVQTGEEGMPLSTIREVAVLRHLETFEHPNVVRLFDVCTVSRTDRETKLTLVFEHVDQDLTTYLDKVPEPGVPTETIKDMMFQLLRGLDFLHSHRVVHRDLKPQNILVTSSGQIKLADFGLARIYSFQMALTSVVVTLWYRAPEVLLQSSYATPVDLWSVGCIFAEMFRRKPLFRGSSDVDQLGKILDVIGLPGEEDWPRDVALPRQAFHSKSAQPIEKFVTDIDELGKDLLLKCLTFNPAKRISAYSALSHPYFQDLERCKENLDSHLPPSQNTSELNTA
UniProt Q9Y6M4: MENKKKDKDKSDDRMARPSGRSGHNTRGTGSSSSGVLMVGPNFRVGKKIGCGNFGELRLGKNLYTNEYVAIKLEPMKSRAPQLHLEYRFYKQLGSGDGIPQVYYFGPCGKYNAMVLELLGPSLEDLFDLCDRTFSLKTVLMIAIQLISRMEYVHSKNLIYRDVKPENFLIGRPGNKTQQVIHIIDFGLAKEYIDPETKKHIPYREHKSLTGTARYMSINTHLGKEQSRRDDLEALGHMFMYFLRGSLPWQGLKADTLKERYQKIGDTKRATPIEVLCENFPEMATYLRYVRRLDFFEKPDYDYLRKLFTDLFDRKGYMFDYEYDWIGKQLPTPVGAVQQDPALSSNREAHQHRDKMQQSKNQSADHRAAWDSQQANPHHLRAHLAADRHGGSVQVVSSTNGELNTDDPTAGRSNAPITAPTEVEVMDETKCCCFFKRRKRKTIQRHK
UniProt Q96L34: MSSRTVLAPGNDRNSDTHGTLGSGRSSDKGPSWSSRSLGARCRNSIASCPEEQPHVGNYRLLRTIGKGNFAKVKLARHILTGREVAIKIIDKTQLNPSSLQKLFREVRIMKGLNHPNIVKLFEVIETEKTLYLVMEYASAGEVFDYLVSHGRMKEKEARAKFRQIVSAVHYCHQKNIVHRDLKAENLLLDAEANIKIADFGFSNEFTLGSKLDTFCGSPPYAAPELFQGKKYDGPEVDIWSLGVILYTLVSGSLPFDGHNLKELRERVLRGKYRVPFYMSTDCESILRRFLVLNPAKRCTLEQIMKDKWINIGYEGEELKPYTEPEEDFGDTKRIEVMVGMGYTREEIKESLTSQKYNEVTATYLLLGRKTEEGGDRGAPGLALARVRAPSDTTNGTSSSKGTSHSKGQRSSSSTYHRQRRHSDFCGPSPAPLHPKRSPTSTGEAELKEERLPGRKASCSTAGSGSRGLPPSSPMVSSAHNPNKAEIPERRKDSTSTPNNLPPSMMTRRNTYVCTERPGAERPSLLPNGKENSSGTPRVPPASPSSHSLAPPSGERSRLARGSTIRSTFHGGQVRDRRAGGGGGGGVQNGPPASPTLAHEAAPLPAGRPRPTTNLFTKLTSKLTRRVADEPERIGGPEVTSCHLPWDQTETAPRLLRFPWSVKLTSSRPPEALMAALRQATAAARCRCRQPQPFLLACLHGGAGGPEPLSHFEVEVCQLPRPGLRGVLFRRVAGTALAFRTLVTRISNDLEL
UniProt Q16513: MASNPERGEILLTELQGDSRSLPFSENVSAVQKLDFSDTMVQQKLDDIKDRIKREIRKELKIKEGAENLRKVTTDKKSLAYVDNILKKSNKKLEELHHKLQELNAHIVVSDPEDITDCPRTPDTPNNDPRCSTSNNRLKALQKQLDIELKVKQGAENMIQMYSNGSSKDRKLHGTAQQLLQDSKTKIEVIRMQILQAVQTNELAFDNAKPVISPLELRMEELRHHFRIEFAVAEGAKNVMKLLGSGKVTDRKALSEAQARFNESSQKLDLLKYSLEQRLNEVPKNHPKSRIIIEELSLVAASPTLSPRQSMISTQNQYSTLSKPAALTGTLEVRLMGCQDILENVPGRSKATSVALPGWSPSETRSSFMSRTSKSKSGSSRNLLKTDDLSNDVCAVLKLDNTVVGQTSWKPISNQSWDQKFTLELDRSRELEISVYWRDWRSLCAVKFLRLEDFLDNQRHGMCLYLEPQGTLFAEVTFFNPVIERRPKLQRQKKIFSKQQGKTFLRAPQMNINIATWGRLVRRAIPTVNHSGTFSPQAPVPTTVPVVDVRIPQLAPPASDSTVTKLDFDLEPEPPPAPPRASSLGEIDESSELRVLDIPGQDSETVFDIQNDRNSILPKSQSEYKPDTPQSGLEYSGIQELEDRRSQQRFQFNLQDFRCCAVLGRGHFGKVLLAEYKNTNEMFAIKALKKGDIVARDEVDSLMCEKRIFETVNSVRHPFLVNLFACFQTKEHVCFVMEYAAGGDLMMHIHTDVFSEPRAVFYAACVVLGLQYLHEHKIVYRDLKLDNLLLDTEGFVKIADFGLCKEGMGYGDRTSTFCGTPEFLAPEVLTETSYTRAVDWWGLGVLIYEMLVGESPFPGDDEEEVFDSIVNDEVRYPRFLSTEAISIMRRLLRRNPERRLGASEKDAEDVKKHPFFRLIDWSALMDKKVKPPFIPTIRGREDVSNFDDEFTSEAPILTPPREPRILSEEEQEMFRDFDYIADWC
UniProt Q9Y572: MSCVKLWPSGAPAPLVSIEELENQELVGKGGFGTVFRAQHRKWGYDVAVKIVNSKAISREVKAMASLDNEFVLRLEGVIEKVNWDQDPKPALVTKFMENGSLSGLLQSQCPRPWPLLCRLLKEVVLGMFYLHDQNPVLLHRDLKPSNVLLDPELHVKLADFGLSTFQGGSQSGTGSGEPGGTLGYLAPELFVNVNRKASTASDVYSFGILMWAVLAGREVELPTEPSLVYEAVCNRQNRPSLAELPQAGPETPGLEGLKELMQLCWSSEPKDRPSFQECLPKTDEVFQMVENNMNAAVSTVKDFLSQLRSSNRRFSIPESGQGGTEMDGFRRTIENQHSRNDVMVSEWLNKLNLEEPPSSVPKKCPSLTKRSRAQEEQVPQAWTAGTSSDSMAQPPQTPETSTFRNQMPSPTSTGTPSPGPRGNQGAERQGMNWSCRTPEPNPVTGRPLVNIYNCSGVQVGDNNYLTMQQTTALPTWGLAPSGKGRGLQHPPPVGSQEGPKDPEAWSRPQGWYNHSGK
UniProt P68400, whole entry: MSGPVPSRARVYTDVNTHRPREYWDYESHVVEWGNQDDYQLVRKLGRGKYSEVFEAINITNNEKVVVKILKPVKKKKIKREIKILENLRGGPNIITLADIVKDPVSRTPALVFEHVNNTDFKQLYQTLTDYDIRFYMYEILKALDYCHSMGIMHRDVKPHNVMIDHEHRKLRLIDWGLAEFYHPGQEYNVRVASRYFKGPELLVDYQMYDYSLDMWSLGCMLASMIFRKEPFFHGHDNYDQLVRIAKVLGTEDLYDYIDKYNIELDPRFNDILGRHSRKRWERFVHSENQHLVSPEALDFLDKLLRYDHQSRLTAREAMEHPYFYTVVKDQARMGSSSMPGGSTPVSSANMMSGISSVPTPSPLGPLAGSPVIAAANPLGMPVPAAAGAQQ
UniProt P54762, 18-984: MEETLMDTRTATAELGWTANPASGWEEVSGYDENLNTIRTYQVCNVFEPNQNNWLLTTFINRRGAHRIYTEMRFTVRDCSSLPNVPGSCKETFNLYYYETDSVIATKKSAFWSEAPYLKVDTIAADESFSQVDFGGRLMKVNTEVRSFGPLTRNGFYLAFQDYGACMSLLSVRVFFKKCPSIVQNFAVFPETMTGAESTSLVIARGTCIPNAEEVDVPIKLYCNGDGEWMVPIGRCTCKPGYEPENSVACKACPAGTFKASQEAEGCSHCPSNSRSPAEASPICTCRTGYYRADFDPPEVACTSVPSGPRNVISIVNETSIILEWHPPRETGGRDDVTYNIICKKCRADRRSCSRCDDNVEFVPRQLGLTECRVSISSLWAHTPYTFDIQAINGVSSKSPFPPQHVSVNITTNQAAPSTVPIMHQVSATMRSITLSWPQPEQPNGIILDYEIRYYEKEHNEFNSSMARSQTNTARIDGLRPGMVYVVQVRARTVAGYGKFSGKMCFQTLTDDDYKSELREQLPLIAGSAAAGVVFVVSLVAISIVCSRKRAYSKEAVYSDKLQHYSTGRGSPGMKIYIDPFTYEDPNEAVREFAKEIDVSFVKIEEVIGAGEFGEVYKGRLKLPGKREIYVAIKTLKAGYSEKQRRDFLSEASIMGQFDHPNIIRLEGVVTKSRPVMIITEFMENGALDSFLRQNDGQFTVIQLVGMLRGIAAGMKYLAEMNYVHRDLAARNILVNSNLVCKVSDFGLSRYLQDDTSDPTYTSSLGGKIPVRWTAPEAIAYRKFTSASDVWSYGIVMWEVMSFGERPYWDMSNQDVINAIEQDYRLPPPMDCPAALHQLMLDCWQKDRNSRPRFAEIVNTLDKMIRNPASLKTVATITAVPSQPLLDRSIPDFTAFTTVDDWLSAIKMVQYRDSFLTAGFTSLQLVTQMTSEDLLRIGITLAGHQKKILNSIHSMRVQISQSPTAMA
UniProt Q5TCX8: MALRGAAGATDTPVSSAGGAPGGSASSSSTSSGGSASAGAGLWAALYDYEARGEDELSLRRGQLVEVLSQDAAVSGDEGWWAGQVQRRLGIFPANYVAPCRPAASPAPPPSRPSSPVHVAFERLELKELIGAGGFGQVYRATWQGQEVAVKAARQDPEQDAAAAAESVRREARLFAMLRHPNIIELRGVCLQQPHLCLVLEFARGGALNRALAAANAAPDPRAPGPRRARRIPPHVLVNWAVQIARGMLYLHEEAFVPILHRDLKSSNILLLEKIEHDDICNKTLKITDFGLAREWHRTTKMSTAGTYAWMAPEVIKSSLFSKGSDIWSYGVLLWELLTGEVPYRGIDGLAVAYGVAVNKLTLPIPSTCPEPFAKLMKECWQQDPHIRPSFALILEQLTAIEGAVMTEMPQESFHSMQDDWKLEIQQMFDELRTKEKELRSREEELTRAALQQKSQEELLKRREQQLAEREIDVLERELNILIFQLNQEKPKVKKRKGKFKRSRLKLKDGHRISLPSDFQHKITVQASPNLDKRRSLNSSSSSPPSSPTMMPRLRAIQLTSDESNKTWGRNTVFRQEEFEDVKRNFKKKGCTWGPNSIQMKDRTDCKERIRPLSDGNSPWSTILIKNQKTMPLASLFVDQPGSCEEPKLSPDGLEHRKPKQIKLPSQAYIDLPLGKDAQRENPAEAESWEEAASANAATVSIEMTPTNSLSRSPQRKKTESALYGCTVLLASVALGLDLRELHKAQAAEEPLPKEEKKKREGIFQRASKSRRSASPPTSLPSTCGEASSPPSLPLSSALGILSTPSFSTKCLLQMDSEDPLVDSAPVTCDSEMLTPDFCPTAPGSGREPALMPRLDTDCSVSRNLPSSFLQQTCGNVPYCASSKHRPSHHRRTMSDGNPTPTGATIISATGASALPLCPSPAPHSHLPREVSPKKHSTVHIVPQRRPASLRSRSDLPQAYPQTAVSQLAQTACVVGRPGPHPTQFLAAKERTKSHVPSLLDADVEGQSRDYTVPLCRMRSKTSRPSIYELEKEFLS
UniProt P51957: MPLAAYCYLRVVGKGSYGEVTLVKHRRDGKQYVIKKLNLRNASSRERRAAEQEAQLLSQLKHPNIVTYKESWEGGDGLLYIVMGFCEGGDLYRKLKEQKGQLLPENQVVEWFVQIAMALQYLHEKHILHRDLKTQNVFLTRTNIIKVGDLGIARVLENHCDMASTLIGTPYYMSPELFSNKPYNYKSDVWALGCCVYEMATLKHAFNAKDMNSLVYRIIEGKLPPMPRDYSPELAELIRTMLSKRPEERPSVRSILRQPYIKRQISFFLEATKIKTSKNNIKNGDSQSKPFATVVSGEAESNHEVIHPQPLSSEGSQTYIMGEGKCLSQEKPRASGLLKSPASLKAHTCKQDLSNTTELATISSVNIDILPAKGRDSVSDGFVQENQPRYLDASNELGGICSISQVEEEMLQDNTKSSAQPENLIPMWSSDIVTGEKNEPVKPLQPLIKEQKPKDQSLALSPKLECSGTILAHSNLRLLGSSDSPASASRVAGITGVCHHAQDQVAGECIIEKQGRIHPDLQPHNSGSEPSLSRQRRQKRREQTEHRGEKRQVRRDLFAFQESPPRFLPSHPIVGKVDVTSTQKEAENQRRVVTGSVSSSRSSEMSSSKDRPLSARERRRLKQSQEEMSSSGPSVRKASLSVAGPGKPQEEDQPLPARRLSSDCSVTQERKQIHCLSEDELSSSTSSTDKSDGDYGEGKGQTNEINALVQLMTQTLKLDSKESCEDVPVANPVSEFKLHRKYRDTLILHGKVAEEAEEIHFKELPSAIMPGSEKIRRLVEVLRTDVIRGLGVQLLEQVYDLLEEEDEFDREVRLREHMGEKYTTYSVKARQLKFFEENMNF

Columns and labels:
ABL1 = ABL1 (Homo sapiens, UniProt P00519); conditions: 1 μM; Run 1, Run 2
ACK1 = ACK1 (Homo sapiens, UniProt Q07912); conditions: 1 μM; Run 1, Run 2
ARK5/NUAK1 = ARK5/NUAK1 (Homo sapiens, UniProt O60285); conditions: 1 μM; Run 1, Run 2
CDK6/cyclin D1 [1] = target: T1, CDK6/cyclin D1 (Homo sapiens, UniProt Q00534); conditions: 1 μM; Run 1, Run 2
CK1G3 = CK1G3 (Homo sapiens, UniProt Q9Y6M4); conditions: 1 μM; Run 1, Run 2
ERBB2/HER2 = ERBB2/HER2 (Homo sapiens, UniProt P04626); conditions: 1 μM; Run 1, Run 2
FER [2] = target: T2, FER (Homo sapiens, UniProt P16591); conditions: 1 μM; Run 1, Run 2
GRK3 = GRK3 (Homo sapiens, UniProt P35626); conditions: 1 μM; Run 1, Run 2
JAK3 = JAK3 (Homo sapiens, UniProt P52333); conditions: 1 μM; Run 1, Run 2
MARK4 = MARK4 (Homo sapiens, UniProt Q96L34); conditions: 1 μM; Run 1, Run 2
MRCKa/CDC42BPA = MRCKa/CDC42BPA (Homo sapiens, UniProt Q5VT25); conditions: 1 μM; Run 1, Run 2
MSSK1/STK23 = MSSK1/STK23 (Homo sapiens, UniProt Q9UPE1); conditions: 1 μM; Run 1, Run 2
MUSK [3] = target: T3, MUSK (Homo sapiens, UniProt O15146); conditions: 1 μM; Run 1, Run 2
MYO3A = MYO3A (Homo sapiens, UniProt Q8NEV4); conditions: 1 μM; Run 1, Run 2
PKN2/PRK2 = PKN2/PRK2 (Homo sapiens, UniProt Q16513); conditions: 1 μM; Run 1, Run 2
PLK1 = PLK1 (Homo sapiens, UniProt P53350); conditions: 1 μM; Run 1, Run 2
RET = RET (Homo sapiens, UniProt P07949); conditions: 1 μM; Run 1, Run 2
RIPK3 = RIPK3 (Homo sapiens, UniProt Q9Y572); conditions: 1 μM; Run 1, Run 2
SYK = SYK (Homo sapiens, UniProt P43405); conditions: 1 μM; Run 1, Run 2
WEE1 = WEE1 (Homo sapiens, UniProt P30291); conditions: 1 μM; Run 1, Run 2
CDK1/cyclin A = CDK1/cyclin A (Homo sapiens, UniProt P06493); assay: biochemical; conditions: read-out: % enzyme activity, 1 μM; Run 1, Run 2
CDK2/cyclin A = CDK2/cyclin A (Homo sapiens, UniProt P24941); assay: biochemical; conditions: read-out: % enzyme activity, 1 μM; Run 1, Run 2
CDK6/cyclin D1 [4] = target: T1, CDK6/cyclin D1; assay: biochemical; conditions: read-out: % enzyme activity, 1 μM; Run 1, Run 2
CDK9/cyclin T1 = CDK9/cyclin T1 (Homo sapiens, UniProt P50750); assay: biochemical; conditions: read-out: % enzyme activity, 1 μM; Run 1, Run 2
CK1g2 = CK1g2 (Homo sapiens, UniProt P78368); assay: biochemical; conditions: read-out: % enzyme activity, 1 μM; Run 1, Run 2
CK2a = CK2a (Homo sapiens, UniProt P68400); assay: biochemical; conditions: read-out: % enzyme activity, 1 μM; Run 1, Run 2
CLK1 = CLK1 (Homo sapiens, UniProt P49759); assay: biochemical; conditions: read-out: % enzyme activity, 1 μM; Run 1, Run 2
DYRK3 = DYRK3 (Homo sapiens, UniProt O43781); assay: biochemical; conditions: read-out: % enzyme activity, 1 μM; Run 1, Run 2
EPHB1 = EPHB1 (Homo sapiens, UniProt P54762); assay: biochemical; conditions: read-out: % enzyme activity, 1 μM; Run 1, Run 2
FER [5] = target: T2, FER; assay: biochemical; conditions: read-out: % enzyme activity, 1 μM; Run 1, Run 2
FRK/PTK5 = FRK/PTK5 (Homo sapiens, UniProt P42685); assay: biochemical; conditions: read-out: % enzyme activity, 1 μM; Run 1, Run 2
LCK = LCK (Homo sapiens, UniProt P06239); assay: biochemical; conditions: read-out: % enzyme activity, 1 μM; Run 1, Run 2
MEKK2 = MEKK2 (Homo sapiens, UniProt Q9Y2U5); assay: biochemical; conditions: read-out: % enzyme activity, 1 μM; Run 1, Run 2
MLK1/MAP3K9 = MLK1/MAP3K9 (Homo sapiens, UniProt P80192); assay: biochemical; conditions: read-out: % enzyme activity, 1 μM; Run 1, Run 2
MLK4 = MLK4 (Homo sapiens, UniProt Q5TCX8); assay: biochemical; conditions: read-out: % enzyme activity, 1 μM; Run 1, Run 2
MUSK [6] = target: T3, MUSK; assay: biochemical; conditions: read-out: % enzyme activity, 1 μM; Run 1, Run 2
NEK4 = NEK4 (Homo sapiens, UniProt P51957); assay: biochemical; conditions: read-out: % enzyme activity, 1 μM; Run 1, Run 2
p70S6Kb/RPS6KB2 = p70S6Kb/RPS6KB2 (Homo sapiens, UniProt Q9UBS0); assay: biochemical; conditions: read-out: % enzyme activity, 1 μM; Run 1, Run 2
PIM3 = PIM3 (Homo sapiens, UniProt Q86V86); assay: biochemical; conditions: read-out: % enzyme activity, 1 μM; Run 1, Run 2
PKCzeta = PKCzeta (Homo sapiens, UniProt Q05513); assay: biochemical; conditions: read-out: % enzyme activity, 1 μM; Run 1, Run 2
RAF1 = RAF1 (Homo sapiens, UniProt P04049); assay: biochemical; conditions: read-out: % enzyme activity, 1 μM; Run 1, Run 2
TRKC = TRKC (Homo sapiens, UniProt Q16288); assay: biochemical; conditions: read-out: % enzyme activity, 1 μM; Run 1, Run 2
TXK = TXK (Homo sapiens, UniProt P42681); assay: biochemical; conditions: read-out: % enzyme activity, 1 μM; Run 1, Run 2

COc1cc(-c2cncc(-c3ccc(N4CCN(C(C)C)CC4)cc3)c2C)cc(F)c1C(N)=O [Compound 26b, 2-Fluoro-4-(5-(4-(4-isopropylpiperazin-1-yl)phenyl)-4-methylpyridin-3-yl)-6-methoxybenzamide]
% enzyme activity (ABL1): 80.78%
% enzyme activity (ACK1): 61.59%
% enzyme activity (ARK5/NUAK1): 92.31%
% enzyme activity (CDK6/cyclin D1 [1]): 100.82%
% enzyme activity (CK1G3): 69.81%
% enzyme activity (ERBB2/HER2): 85.10%
% enzyme activity (FER [2]): 83.48%
% enzyme activity (GRK3): 96.85%
% enzyme activity (JAK3): 101.59%
% enzyme activity (MARK4): 83.34%
% enzyme activity (MRCKa/CDC42BPA): 102.98%
% enzyme activity (MSSK1/STK23): 91.96%
% enzyme activity (MUSK [3]): 88.04%
% enzyme activity (MYO3A): 95.48%
% enzyme activity (PKN2/PRK2): 100.36%
% enzyme activity (PLK1): 97.79%
% enzyme activity (RET): 89.18%
% enzyme activity (RIPK3): 111.71%
% enzyme activity (SYK): 99.79%
% enzyme activity (WEE1): 120.95%
remaining activity at 1 µM (CDK1/cyclin A): 84.5%
remaining activity at 1 µM (CDK2/cyclin A): 92.3%
remaining activity at 1 µM (CDK6/cyclin D1 [4]): 101%
remaining activity at 1 µM (CDK9/cyclin T1): 93.5%
remaining activity at 1 µM (CK1g2): 73.2%
remaining activity at 1 µM (CK2a): 88.7%
remaining activity at 1 µM (CLK1): 93.6%
remaining activity at 1 µM (DYRK3): 93.4%
remaining activity at 1 µM (EPHB1): 91.5%
remaining activity at 1 µM (FER [5]): 83.9%
remaining activity at 1 µM (FRK/PTK5): 100%
remaining activity at 1 µM (LCK): 97%
remaining activity at 1 µM (MEKK2): 81.1%
remaining activity at 1 µM (MLK1/MAP3K9): 104%
remaining activity at 1 µM (MLK4): 91.2%
remaining activity at 1 µM (MUSK [6]): 90.3%
remaining activity at 1 µM (NEK4): 101%
remaining activity at 1 µM (p70S6Kb/RPS6KB2): 103%
remaining activity at 1 µM (PIM3): 107%
remaining activity at 1 µM (PKCzeta): 92.4%
remaining activity at 1 µM (RAF1): 85%
remaining activity at 1 µM (TRKC): 119%
remaining activity at 1 µM (TXK): 104%
